Source: the supplement of paper PMC4604168 (melanoma cell lines)
Some of the results follow. Single values are uncertain, as repeats are few or missing.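 Cells were imaged in 1,536-well plates, and nuclei stained with an antibody against cleaved PARP were counted against all DNA-stained nuclei to give the apoptosis fraction. Screening doses were chosen to leave most cells alive, and resting and induced cleaved-PARP levels differ strongly between cell lines.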

System: WM1745
Test: cleaved PARP positive nuclei fraction relative to DMSO control; melanoma cells; higher = more apoptosis
Conditions: library dose: low library concentration; 72 h

Row | SMILES | cleaved PARP positive nuclei fraction [%]
1 | NC1(c2ccc(-c3nc4ccn5c(=O)[nH]nc5c4cc3-c3ccccc3)cc2)CCC1 + CCCCCCCCCCCC1=C(O)C(=O)C=C(O)C1=O [Embelin] (first compound 0.4 µM, partner dose 1.2 µM) | 104
2 | NC(=O)c1ccc(N(C(N)=O)c2c(F)cccc2F)nc1-c1ccc(F)cc1F + CC1(C)NC(=O)N(c2ccc([N+](=O)[O-])c(C(F)(F)F)c2)C1=O [nilutamide] (first compound 0.4 µM, partner dose 1 µM) | 88.4
3 | COc1ccc(C2=N[C@@H](c3ccc(Cl)cc3)[C@@H](c3ccc(Cl)cc3)N2C(=O)N2CCNC(=O)C2)c(OC(C)C)c1 [Nutlin-3] + Cn1cncc1[C@@](N)(c1ccc(Cl)cc1)c1ccc2c(c1)c(-c1cccc(Cl)c1)cc(=O)n2C [tipifarnib] (first compound 0.1 µM, partner dose 0.01 µM) | 92.2
4 | CN(c1ncccc1CNc1nc(Nc2ccc3c(c2)CC(=O)N3)ncc1C(F)(F)F)S(C)(=O)=O + Cc1cc([N+](=O)[O-])ccc1NS(=O)(=O)c1cc(Cl)ccc1Cl [FH535] (first compound 0.08 µM, partner dose 1 µM) | 115
5 | CC(=O)O[C@@]12CO[C@@H]1C[C@H](O)[C@@]1(C)C(=O)[C@H](O)C3=C(C)[C@@H](OC(=O)[C@H](O)[C@@H](NC(=O)OC(C)(C)C)c4ccccc4)C[C@@](O)([C@@H](OC(=O)c4ccccc4)[C@H]21)C3(C)C [Docetaxel] + N#Cc1c(O)c2c(-c3ccc(-c4ccccc4O)cc3)csc2[nH]c1=O [A769662] (first compound 0.0001 µM, partner dose 2 µM) | 163
6 | CC(=O)O[C@@]12CO[C@@H]1C[C@H](O)[C@@]1(C)C(=O)[C@H](O)C3=C(C)[C@@H](OC(=O)[C@H](O)[C@@H](NC(=O)OC(C)(C)C)c4ccccc4)C[C@@](O)([C@@H](OC(=O)c4ccccc4)[C@H]21)C3(C)C [Docetaxel] + COc1ccc2c(c1)CCC1C2CCC2(C)C(NCCCCCCN3C(=O)C=CC3=O)CCC12 [U73122] (first compound 0.0001 µM, partner dose 0.4 µM) | 223
7 | CN(c1ncccc1CNc1nc(Nc2ccc3c(c2)CC(=O)N3)ncc1C(F)(F)F)S(C)(=O)=O + COc1cc(N2CCC(N3CCN(C)CC3)CC2)ccc1Nc1ncc(Cl)c(Nc2ccccc2S(=O)(=O)C(C)C)n1 [NVP-TAE684] (first compound 0.08 µM, partner dose 0.08 µM) | 103
8 | NC(=O)c1ccc(N(C(N)=O)c2c(F)cccc2F)nc1-c1ccc(F)cc1F + O=C(O)c1ccc(-c2c[nH]c3ncc(-c4ccccc4)cc23)cc1C1CCCC1 [GSK650394] (first compound 0.4 µM, partner dose 0.16 µM) | 89.4
9 | C[C@@H](N)c1ccc(C(=O)Nc2ccnc3[nH]ccc23)cc1 + Cc1cc(N2CCOCC2)cc2[nH]c(-c3c(NC[C@@H](O)c4cccc(Cl)c4)cc[nH]c3=O)nc12 [BMS536924] (first compound 0.4 µM, partner dose 0.2 µM) | 170
10 | CC(=O)O[C@@]12CO[C@@H]1C[C@H](O)[C@@]1(C)C(=O)[C@H](O)C3=C(C)[C@@H](OC(=O)[C@H](O)[C@@H](NC(=O)OC(C)(C)C)c4ccccc4)C[C@@](O)([C@@H](OC(=O)c4ccccc4)[C@H]21)C3(C)C [Docetaxel] + COc1ccc(-c2ccc3c(N4CCOCC4)nc(N4C[C@@H](C)O[C@@H](C)C4)nc3n2)cc1CO [KU0063794] (first compound 0.0001 µM, partner dose 0.02 µM) | 183
11 | CCCCCCCCc1ccc(CCC(N)(CO)CO)cc1 [fingolimod] + Cc1cc([N+](=O)[O-])ccc1NS(=O)(=O)c1cc(Cl)ccc1Cl [FH535] (first compound 2 µM, partner dose 1 µM) | 95.5
12 | CCCCCCCCc1ccc(CCC(N)(CO)CO)cc1 [fingolimod] + Cn1cc(/C=C2\C(=O)Nc3cccnc32)c2ccccc21 [GW441756] (first compound 2 µM, partner dose 0.4 µM) | 120
13 | Cn1cnc2c(F)c(Nc3ccc(Br)cc3Cl)c(C(=O)NOCCO)cc21 [selumetinib] + O=C(Nc1ccccc1)c1cc([N+](=O)[O-])ccc1Cl [GW9662] (first compound 0.015 µM, partner dose 2 µM) | 97
14 | COc1ccc(C2=N[C@@H](c3ccc(Cl)cc3)[C@@H](c3ccc(Cl)cc3)N2C(=O)N2CCNC(=O)C2)c(OC(C)C)c1 [Nutlin-3] + COc1ccc2c(c1)CCC1C2CCC2(C)C(NCCCCCCN3C(=O)C=CC3=O)CCC12 [U73122] (first compound 0.1 µM, partner dose 0.4 µM) | 98.9
15 | CS(=O)(=O)c1ccc(C(=O)Nc2ccc(Cl)c(-c3ccccn3)c2)c(Cl)c1 [vismodegib] + Cc1cc(N2CCOCC2)cc2[nH]c(-c3c(NC[C@@H](O)c4cccc(Cl)c4)cc[nH]c3=O)nc12 [BMS536924] (first compound 1 µM, partner dose 0.2 µM) | 121
16 | CC1(C)CCC(c2ccc(Cl)cc2)=C(CN2CCN(c3ccc(C(=O)NS(=O)(=O)c4ccc(N[C@H](CCN5CCOCC5)CSc5ccccc5)c(S(=O)(=O)C(F)(F)F)c4)cc3)CC2)C1 + Cc1cc(N2CCOCC2)cc2[nH]c(-c3c(NC[C@@H](O)c4cccc(Cl)c4)cc[nH]c3=O)nc12 [BMS536924] (first compound 0.4 µM, partner dose 0.2 µM) | 954
17 | CC(=O)O[C@@]12CO[C@@H]1C[C@H](O)[C@@]1(C)C(=O)[C@H](O)C3=C(C)[C@@H](OC(=O)[C@H](O)[C@@H](NC(=O)OC(C)(C)C)c4ccccc4)C[C@@](O)([C@@H](OC(=O)c4ccccc4)[C@H]21)C3(C)C [Docetaxel] + Cc1ccc(NC(=O)c2cccc(N(C)C)c2)cc1NC(=O)c1ccc(O)cc1 [ZM336372] (first compound 0.0001 µM, partner dose 2 µM) | 207
18 | C[C@@H](N)c1ccc(C(=O)Nc2ccnc3[nH]ccc23)cc1 + COc1cc(N2CCC(N3CCN(C)CC3)CC2)ccc1Nc1ncc(Cl)c(Nc2ccccc2S(=O)(=O)C(C)C)n1 [NVP-TAE684] (first compound 0.4 µM, partner dose 0.08 µM) | 144
19 | CCN(CC)CCNC(=O)c1c(C)[nH]c(/C=C2\C(=O)Nc3ccc(F)cc32)c1C [sunitinib] + O=c1cc(-c2cccc3c2Sc2ccccc2S3)oc(N2CCOCC2)c1 [KU55933] (first compound 0.4 µM, partner dose 1 µM) | 156
20 | C[C@]1(O)C[C@@H](c2nc(-c3ccc4ccc(-c5ccccc5)nc4c3)c3c(N)nccn32)C1 + O=C(Nc1ccccc1)c1cc([N+](=O)[O-])ccc1Cl [GW9662] (first compound 0.4 µM, partner dose 2 µM) | 121
21 | CCCCCCCCc1ccc(CCC(N)(CO)CO)cc1 [fingolimod] + NCC(=O)Nc1ccc(-n2nc(C(F)(F)F)cc2-c2ccc3c(ccc4ccccc43)c2)cc1 [OSU03012] (first compound 2 µM, partner dose 1 µM) | 130
22 | CC1(C)CCC(c2ccc(Cl)cc2)=C(CN2CCN(c3ccc(C(=O)NS(=O)(=O)c4ccc(N[C@H](CCN5CCOCC5)CSc5ccccc5)c(S(=O)(=O)C(F)(F)F)c4)cc3)CC2)C1 + CO[C@@H]1[C@H](N(C)C(=O)c2ccccc2)C[C@H]2O[C@]1(C)n1c3ccccc3c3c4c(c5c6ccccc6n2c5c31)C(=O)NC4 [Midostaurin] (first compound 0.4 µM, partner dose 0.08 µM) | 718
23 | C[C@]1(O)C[C@@H](c2nc(-c3ccc4ccc(-c5ccccc5)nc4c3)c3c(N)nccn32)C1 + Cc1cc([N+](=O)[O-])ccc1NS(=O)(=O)c1cc(Cl)ccc1Cl [FH535] (first compound 0.4 µM, partner dose 1 µM) | 115

Reformatted as a markdown table: entries from further up.

| Row | SMILES | cleaved PARP positive nuclei fraction [%] |
| --- | --- | --- |
| 10 | CC(=O)O[C@@]12CO[C@@H]1C[C@H](O)[C@@]1(C)C(=O)[C@H](O)C3=C(C)[C@@H](OC(=O)[C@H](O)[C@@H](NC(=O)OC(C)(C)C)c4ccccc4)C[C@@](O)([C@@H](OC(=O)c4ccccc4)[C@H]21)C3(C)C [Docetaxel] + COc1ccc(-c2ccc3c(N4CCOCC4)nc(N4C[C@@H](C)O[C@@H](C)C4)nc3n2)cc1CO [KU0063794] (first compound 0.0001 µM, partner dose 0.02 µM) | 183 |
| 11 | CCCCCCCCc1ccc(CCC(N)(CO)CO)cc1 [fingolimod] + Cc1cc([N+](=O)[O-])ccc1NS(=O)(=O)c1cc(Cl)ccc1Cl [FH535] (first compound 2 µM, partner dose 1 µM) | 95.5 |
